Measurements published in the supplement of paper PMC10849652.
The list shows a part of the results.

Protein sequences, listed by entry. Tags and fused reporters are not part of them. Lines headed by an entry give the natural chain unless they say otherwise; changes in a name come on top.
UniProt Q16836: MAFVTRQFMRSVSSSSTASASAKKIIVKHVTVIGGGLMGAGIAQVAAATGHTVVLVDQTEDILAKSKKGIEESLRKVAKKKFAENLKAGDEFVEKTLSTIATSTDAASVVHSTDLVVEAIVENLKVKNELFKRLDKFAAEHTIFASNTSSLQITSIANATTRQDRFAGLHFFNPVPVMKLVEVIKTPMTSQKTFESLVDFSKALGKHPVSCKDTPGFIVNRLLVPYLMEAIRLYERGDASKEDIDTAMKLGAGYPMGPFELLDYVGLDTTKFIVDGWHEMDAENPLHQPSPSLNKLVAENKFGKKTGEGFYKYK
UniProt P16401, whole entry, looked up: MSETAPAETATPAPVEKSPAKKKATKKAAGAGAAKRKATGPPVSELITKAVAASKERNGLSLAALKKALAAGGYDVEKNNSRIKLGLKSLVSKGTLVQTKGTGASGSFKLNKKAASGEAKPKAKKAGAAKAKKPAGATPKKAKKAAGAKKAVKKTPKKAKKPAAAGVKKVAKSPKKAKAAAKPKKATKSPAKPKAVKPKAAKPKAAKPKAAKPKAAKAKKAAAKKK
UniProt Q9NYZ3: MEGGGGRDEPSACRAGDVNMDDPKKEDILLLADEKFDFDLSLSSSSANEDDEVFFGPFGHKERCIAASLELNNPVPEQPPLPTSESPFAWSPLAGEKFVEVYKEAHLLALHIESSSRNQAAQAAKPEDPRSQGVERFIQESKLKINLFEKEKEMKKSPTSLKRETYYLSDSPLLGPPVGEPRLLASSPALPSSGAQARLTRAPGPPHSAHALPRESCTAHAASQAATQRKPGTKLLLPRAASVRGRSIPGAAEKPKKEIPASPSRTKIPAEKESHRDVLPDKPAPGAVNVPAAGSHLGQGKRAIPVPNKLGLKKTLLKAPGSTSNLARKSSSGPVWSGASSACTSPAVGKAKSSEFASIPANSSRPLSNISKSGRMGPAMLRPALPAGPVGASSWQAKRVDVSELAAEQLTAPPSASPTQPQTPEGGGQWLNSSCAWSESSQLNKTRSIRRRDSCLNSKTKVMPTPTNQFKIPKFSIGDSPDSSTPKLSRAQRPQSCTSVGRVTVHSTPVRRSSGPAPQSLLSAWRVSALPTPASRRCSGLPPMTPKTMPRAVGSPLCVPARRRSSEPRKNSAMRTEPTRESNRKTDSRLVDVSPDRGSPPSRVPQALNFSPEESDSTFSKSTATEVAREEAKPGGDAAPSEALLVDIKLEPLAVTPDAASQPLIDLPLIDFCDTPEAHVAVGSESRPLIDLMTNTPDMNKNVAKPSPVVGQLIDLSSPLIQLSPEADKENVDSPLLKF
UniProt P51858: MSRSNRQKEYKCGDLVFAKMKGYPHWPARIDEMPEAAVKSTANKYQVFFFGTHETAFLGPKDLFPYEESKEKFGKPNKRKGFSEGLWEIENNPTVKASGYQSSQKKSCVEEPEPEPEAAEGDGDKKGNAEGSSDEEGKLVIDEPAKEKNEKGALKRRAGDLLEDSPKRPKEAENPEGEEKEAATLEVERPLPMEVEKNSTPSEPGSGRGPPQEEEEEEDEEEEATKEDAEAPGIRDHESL
UniProt P49840: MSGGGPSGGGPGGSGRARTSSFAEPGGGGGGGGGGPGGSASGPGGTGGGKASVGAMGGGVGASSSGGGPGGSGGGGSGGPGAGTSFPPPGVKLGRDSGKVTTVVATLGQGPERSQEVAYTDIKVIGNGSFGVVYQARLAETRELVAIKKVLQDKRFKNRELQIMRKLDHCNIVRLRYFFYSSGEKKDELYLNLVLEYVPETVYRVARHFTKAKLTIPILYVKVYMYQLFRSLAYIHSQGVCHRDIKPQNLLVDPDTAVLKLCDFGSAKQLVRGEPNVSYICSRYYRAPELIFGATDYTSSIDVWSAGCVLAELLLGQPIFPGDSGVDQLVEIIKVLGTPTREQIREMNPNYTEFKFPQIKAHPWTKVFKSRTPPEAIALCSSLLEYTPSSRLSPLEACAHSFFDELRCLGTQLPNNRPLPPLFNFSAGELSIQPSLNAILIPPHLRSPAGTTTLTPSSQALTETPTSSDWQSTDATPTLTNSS
UniProt Q9BX10: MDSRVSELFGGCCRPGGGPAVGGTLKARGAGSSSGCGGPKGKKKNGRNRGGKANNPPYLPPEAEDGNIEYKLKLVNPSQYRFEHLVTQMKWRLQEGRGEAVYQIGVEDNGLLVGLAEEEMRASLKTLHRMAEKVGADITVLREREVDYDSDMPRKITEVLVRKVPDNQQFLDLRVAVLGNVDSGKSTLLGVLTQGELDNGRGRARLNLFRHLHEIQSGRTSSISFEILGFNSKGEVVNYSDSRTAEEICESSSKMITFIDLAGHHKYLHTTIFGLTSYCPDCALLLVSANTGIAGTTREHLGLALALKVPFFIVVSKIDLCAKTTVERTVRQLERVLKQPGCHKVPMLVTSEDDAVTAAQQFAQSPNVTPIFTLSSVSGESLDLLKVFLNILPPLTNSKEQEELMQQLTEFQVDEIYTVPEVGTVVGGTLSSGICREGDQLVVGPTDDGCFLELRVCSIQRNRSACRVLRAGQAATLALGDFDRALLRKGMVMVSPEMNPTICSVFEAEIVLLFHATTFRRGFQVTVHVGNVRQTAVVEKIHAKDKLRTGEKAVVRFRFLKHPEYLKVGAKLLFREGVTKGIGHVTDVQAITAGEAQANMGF
UniProt Q12789: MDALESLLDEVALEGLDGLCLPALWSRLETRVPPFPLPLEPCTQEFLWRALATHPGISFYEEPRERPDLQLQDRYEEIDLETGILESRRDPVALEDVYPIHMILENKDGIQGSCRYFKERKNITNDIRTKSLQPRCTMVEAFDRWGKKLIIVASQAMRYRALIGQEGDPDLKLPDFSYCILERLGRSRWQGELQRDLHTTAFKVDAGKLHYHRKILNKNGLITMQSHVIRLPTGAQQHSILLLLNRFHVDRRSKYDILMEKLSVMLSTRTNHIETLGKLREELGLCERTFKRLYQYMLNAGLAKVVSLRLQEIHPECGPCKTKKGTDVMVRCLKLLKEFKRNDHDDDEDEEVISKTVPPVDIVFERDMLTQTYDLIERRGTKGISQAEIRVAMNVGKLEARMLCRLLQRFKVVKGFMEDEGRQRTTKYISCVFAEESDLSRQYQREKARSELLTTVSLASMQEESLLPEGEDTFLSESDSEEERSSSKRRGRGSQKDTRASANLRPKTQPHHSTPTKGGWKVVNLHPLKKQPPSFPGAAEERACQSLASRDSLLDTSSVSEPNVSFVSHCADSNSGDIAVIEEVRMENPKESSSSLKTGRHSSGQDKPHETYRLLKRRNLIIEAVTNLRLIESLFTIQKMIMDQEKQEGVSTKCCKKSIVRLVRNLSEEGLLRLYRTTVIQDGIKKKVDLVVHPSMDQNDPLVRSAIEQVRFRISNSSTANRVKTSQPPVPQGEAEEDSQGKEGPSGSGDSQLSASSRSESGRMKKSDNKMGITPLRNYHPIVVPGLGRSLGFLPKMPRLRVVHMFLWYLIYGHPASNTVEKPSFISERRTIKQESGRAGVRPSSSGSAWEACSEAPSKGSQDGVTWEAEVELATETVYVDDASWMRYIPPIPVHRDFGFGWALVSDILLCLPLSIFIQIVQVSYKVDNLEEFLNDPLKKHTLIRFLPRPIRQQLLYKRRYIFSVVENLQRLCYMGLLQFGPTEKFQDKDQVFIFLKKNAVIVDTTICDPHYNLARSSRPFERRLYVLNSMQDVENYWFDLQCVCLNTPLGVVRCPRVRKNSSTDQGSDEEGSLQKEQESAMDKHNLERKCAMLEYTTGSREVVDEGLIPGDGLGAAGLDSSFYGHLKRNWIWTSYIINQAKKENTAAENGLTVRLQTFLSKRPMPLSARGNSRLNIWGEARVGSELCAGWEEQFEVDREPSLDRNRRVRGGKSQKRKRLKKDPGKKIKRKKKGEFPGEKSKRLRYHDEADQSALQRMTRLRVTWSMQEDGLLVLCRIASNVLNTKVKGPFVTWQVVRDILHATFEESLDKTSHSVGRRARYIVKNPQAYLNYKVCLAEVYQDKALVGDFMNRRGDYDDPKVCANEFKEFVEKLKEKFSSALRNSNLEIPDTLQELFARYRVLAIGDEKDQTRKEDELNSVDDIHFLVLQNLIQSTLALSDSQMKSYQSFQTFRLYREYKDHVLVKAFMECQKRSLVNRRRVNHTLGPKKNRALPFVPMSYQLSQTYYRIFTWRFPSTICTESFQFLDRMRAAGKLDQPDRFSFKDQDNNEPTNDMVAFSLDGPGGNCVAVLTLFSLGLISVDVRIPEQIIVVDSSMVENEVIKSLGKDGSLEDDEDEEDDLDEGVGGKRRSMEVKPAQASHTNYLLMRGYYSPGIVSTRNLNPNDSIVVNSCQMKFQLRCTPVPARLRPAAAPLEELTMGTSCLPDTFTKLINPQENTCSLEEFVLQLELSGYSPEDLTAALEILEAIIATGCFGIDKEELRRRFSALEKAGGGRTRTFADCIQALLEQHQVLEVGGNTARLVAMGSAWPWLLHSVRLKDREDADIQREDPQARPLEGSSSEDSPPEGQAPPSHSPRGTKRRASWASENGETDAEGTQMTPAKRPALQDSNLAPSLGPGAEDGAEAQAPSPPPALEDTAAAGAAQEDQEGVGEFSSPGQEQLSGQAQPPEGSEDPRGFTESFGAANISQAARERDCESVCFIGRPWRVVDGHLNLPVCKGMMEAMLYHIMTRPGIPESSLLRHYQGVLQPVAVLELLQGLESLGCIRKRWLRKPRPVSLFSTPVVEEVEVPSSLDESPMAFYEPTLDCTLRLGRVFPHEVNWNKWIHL
UniProt P49590: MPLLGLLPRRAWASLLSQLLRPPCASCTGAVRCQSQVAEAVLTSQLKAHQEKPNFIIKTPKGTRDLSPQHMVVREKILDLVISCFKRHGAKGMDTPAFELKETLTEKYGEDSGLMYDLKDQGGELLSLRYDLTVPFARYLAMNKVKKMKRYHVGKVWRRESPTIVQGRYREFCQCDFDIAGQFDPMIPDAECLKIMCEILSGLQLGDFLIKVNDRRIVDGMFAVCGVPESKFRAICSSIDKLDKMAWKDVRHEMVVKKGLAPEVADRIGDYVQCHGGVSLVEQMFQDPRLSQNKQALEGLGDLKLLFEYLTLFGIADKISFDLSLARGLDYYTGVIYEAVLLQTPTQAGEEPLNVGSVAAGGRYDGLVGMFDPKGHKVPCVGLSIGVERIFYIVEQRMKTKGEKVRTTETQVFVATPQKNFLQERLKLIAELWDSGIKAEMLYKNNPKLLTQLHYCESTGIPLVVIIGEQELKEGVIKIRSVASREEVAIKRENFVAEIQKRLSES
UniProt O14929: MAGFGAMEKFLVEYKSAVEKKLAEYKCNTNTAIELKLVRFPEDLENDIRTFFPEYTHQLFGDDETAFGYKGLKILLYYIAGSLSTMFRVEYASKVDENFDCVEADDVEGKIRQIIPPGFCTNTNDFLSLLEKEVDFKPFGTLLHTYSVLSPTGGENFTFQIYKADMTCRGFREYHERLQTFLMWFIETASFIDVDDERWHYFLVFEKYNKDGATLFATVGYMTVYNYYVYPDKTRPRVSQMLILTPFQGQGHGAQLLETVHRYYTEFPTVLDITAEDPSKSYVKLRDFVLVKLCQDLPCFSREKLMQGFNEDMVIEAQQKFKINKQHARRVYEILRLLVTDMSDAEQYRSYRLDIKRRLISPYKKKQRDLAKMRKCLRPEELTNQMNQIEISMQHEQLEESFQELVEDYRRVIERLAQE
UniProt Q4V328: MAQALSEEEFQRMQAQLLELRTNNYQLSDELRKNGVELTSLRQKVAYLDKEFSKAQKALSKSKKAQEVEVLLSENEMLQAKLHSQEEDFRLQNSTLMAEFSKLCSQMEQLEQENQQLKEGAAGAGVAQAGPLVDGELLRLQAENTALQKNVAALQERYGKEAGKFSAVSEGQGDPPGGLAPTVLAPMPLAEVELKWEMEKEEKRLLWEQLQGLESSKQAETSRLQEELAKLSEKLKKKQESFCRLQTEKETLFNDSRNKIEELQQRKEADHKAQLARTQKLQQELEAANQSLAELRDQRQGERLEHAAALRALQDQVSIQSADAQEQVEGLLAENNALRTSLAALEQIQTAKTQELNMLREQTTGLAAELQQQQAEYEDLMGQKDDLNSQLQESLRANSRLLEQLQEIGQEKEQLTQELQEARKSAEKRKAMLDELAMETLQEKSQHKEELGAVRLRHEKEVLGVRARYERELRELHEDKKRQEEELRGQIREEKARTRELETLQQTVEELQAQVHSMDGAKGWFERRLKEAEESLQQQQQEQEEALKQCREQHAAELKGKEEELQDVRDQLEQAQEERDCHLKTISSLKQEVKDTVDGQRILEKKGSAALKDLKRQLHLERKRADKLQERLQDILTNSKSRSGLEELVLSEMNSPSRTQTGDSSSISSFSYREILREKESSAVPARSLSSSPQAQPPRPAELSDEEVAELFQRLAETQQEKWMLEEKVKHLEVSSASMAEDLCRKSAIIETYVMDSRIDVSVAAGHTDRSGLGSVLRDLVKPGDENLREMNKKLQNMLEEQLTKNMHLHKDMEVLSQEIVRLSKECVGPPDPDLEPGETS

Assays:
Assay in all cases: log2 fold change, soluble protein after heating vs DMSO (PISA); higher = thermal stabilisation; K562 lysate, 10 uM; active = over 0.2 and 3.5 SD of the protein, either way, in both replicates (recomputed)
erlotinib = compound: C#Cc1cccc(Nc2ncnc3cc(OCCOC)c(OCCOC)cc23)c1 [erlotinib]
Summary of the method: (§1)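 K562 pellets were dounce-homogenised in PBS pH 7.4 with 1 mM MgCl2, and the crude extract at 1 mg/mL protein was treated with 10 μM compound for 30 min. Aliquots were heated for 3 min across 48°C-58°C, pooled, and brought to 0.5% NP-40 at 4°C; soluble protein was the supernatant after 21,000xg for 90 min. Soluble protein was quantified by TMTpro 16plex LC-MS/MS with channel sums equalised, and reported as log2 fold change in thermal stability against DMSO controls, with values from duplicates.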

[1] = compound: C/C(=N\NC(=O)C1=CC(=CC=C1)S(=O)(=O)N2CCOCC2)/C3=C(C=CC(=C3)Cl)O
Summary of the method: as §1

[2] = compound: C1=CC(=CC=C1C2=NC3=C(N2)C=C(C=C3)C(=O)N)OC4=CC=C(C=C4)Cl
Summary of the method: as §1

[3] = compound: C1=CC2=C(C=CC(=C2)/C=C\3/C(=O)NC(=NCC4=CC=CS4)S3)N=C1
Summary of the method: as §1

[4] = compound: C1=CC2=NC=CN=C2C=C1/C=C/3\C(=O)NC(=O)S3
Summary of the method: as §1

[5] = compound: C1=CC=C(C=C1)C2=NC(=C(N2)C3=CC=NC=C3)C4=CC(=C(C=C4)Cl)O
Summary of the method: as §1

[6] = compound: C1=CC=C2C(=C1)C3=NNC4=CC=CC(=C43)C2=O
Summary of the method: as §1

[7] = compound: C1CCN(C1)C(=O)NC2=CC=CC(=C2)NC3=NC=C(C(=N3)NCCC4=CN=CN4)Br
Summary of the method: as §1

[8] = compound: C1CN(CCC1(CC2=CC=C(C=C2)Cl)N)C3=NC=NC4=C3C=CN4
Summary of the method: as §1

IRAK-1-4 Inhibitor I = compound: C1COCCN1CCN2C3=CC=CC=C3N=C2NC(=O)C4=CC(=CC=C4)[N+](=O)[O-] [IRAK-1-4 Inhibitor I]
Summary of the method: as §1

Target | log2 fold change (erlotinib) | log2 fold change [1] | log2 fold change [2] | log2 fold change [3] | log2 fold change [4] | log2 fold change [5] | log2 fold change [6] | log2 fold change [7] | log2 fold change [8] | log2 fold change (IRAK-1-4 Inhibitor I)
HADH isoform 2 (UniProt Q16836) | inactive: -0.052 | inactive: 0.065 | inactive: 0.023 | inactive: 0.08 | inactive: -0.03 | inactive: 0.003 | inactive: -0.015 | inactive: -0.015 | inactive: -0.028 | inactive: 0.008
H1-5 (UniProt P16401) | inactive: -0.007 | inactive: 0.001 | inactive: -0.004 | inactive: -0.021 | inactive: -0.014 | inactive: 0.026 | inactive: 0.037 | inactive: -0.001 | inactive: -0.026 | inactive: 0.004
HDAC10 (UniProt Q969S8) | inactive: 0.064 | inactive: 0.126 | inactive: 0.035 | inactive: -0.155 | inactive: -0.201 | inactive: -0.111 | inactive: -0.043 | inactive: -0.204 | inactive: 0.053 | inactive: 0.016
GSTM3 (UniProt P21266) | inactive: 0.035 | inactive: 0.008 | inactive: 0.004 | inactive: 0.009 | inactive: 0.092 | inactive: 0.031 | inactive: 0.017 | inactive: -0.046 | inactive: -0.018 | inactive: -0.033
GSTZ1 (UniProt G3V4T6) | inactive: 0.018 | inactive: -0.034 | inactive: 0.032 | inactive: -0.003 | inactive: 0.02 | inactive: -0.043 | inactive: 0.026 | inactive: 0.017 | inactive: 0.064 | inactive: 0.016
GTF3A (UniProt Q92664) | inactive: -0.027 | inactive: -0.039 | inactive: 0.108 | inactive: -0.019 | inactive: -0.002 | inactive: 0.02 | inactive: 0.046 | inactive: 0.03 | inactive: -0.07 | inactive: -0.039
GTSE1 (UniProt Q9NYZ3) | inactive: 0.015 | inactive: -0.003 | inactive: 0.057 | inactive: 0.042 | inactive: -0.015 | inactive: 0.025 | inactive: -0.04 | inactive: 0.149 | inactive: -0.044 | inactive: -0.078
HDGF (UniProt P51858) | inactive: -0.02 | inactive: 0.004 | inactive: 0.008 | inactive: -0.011 | inactive: -0.011 | inactive: 0.011 | inactive: -0.016 | inactive: 0.004 | inactive: -0.011 | inactive: -0.008
GSK3A (UniProt P49840) | inactive: -0.029 | inactive: -0.103 | inactive: -0.034 | inactive: 0.069 | inactive: 0.066 | inactive: 0.295 | inactive: 0.182 | inactive: 0.163 | inactive: 0.018 | inactive: -0.014
GRSF1 (UniProt Q12849) | inactive: -0.02 | inactive: -0.03 | inactive: 0.016 | inactive: -0.003 | inactive: 0.003 | inactive: -0.014 | inactive: -0.032 | inactive: 0.004 | inactive: 0.034 | inactive: 0.054
GTPBP2 (UniProt Q9BX10) | inactive: -0.008 | inactive: -0.051 | inactive: -0.05 | inactive: -0.002 | inactive: -0.011 | inactive: 0.02 | inactive: -0.032 | inactive: -0.058 | inactive: -0.017 | inactive: 0.023
HDGFL3 (UniProt Q9Y3E1) | inactive: 0.062 | inactive: -0.039 | inactive: 0.027 | inactive: -0.021 | inactive: -0.013 | inactive: -0.032 | inactive: -0.002 | inactive: 0.04 | inactive: 0.023 | inactive: 0.03
GTF2F2 (UniProt P13984) | inactive: -0.011 | inactive: 0.037 | inactive: 0.028 | inactive: 0.008 | inactive: -0.042 | inactive: 0.009 | inactive: 0.015 | inactive: 0.011 | inactive: -0.004 | inactive: -0.008
GSPT1 isoform 3 (UniProt P15170) | inactive: 0.007 | inactive: 0.033 | inactive: 0 | inactive: -0.012 | inactive: -0.01 | inactive: 0.02 | inactive: 0.015 | inactive: 0.022 | inactive: -0.004 | inactive: 0.015
HEATR5B (UniProt Q9P2D3) | inactive: 0.017 | inactive: 0.004 | inactive: -0.035 | inactive: -0.016 | inactive: -0.046 | inactive: 0.018 | inactive: -0.049 | inactive: -0.023 | inactive: 0.049 | inactive: 0.057
GRK2 (UniProt P25098) | inactive: 0.023 | inactive: 0.028 | inactive: 0.015 | inactive: 0.115 | inactive: -0.005 | inactive: -0.025 | inactive: -0.098 | inactive: -0.026 | active: 0.536 | inactive: -0.002
GTF3C1 (UniProt Q12789) | inactive: -0.003 | inactive: 0.014 | inactive: -0.013 | inactive: -0.037 | inactive: 0.002 | inactive: -0.016 | inactive: -0.052 | inactive: -0.032 | inactive: 0.014 | inactive: -0.004
HEATR5A (UniProt Q86XA9) | inactive: 0.219 | inactive: 0.375 | inactive: -0.002 | inactive: -0.062 | inactive: -0.017 | inactive: -0.003 | inactive: -0.01 | inactive: -0.004 | inactive: 0.035 | inactive: 0.001
GTF3C5 isoform 3 (UniProt Q9Y5Q8) | inactive: -0.002 | inactive: -0.042 | inactive: -0.01 | inactive: 0.007 | inactive: -0.024 | inactive: -0.019 | inactive: -0.03 | inactive: 0.072 | inactive: 0.019 | inactive: -0.015
GTF2H3 (UniProt Q13889) | inactive: 0.056 | inactive: -0.023 | inactive: -0.076 | inactive: -0.003 | inactive: -0.065 | inactive: 0.071 | inactive: -0.021 | inactive: -0.035 | inactive: 0.031 | inactive: 0.096
GTSF1 (UniProt Q8WW33) | inactive: -0.01 | inactive: -0.018 | inactive: 0.042 | inactive: 0.009 | inactive: -0.03 | inactive: 0.016 | inactive: 0.011 | inactive: -0.015 | inactive: 0.009 | inactive: 0.04
HARS2 (UniProt P49590) | inactive: 0 | inactive: -0.05 | inactive: -0.051 | inactive: -0.049 | inactive: -0.005 | inactive: -0.06 | inactive: 0.079 | inactive: -0.277 | inactive: 0.006 | inactive: -0.022
GRAP2 (UniProt O75791) | inactive: 0.044 | inactive: 0.038 | inactive: 0.052 | inactive: 0.024 | inactive: 0.018 | inactive: -0.004 | inactive: -0.014 | inactive: -0.004 | inactive: 0 | inactive: -0.008
HAT1 (UniProt O14929) | inactive: 0.016 | inactive: 0.001 | inactive: 0.031 | inactive: 0 | inactive: -0.028 | inactive: 0.004 | inactive: -0.003 | inactive: -0.023 | inactive: 0.036 | inactive: 0.017
GYS1 (UniProt P13807) | inactive: -0.033 | inactive: 0.045 | inactive: -0.006 | inactive: -0.028 | inactive: -0.012 | inactive: -0.034 | inactive: 0.145 | inactive: -0.049 | inactive: 0.004 | inactive: 0.018
HDAC4 (UniProt P56524) | inactive: -0.019 | inactive: -0.002 | inactive: 0.093 | inactive: -0.048 | inactive: -0.087 | inactive: -0.01 | inactive: -0.074 | inactive: 0.018 | inactive: 0.028 | inactive: 0.004
GRB10 (UniProt Q13322) | inactive: 0.027 | inactive: -0.004 | inactive: -0.06 | inactive: 0.013 | inactive: -0.03 | inactive: 0.016 | inactive: 0.019 | inactive: 0.073 | inactive: 0.054 | inactive: -0.039
GSR (UniProt P00390) | inactive: 0.014 | inactive: -0.026 | inactive: -0.008 | inactive: 0.019 | inactive: 0.049 | inactive: -0.122 | inactive: -0.016 | inactive: 0.032 | inactive: -0.019 | inactive: 0.044
GRIPAP1 (UniProt Q4V328) | inactive: -0.01 | inactive: -0.013 | inactive: 0.015 | inactive: -0.005 | inactive: -0.014 | inactive: -0.004 | inactive: 0.005 | inactive: -0.021 | inactive: 0.007 | inactive: -0.017
GTF3C3 (UniProt Q9Y5Q9) | inactive: 0.016 | inactive: 0.013 | inactive: -0.013 | inactive: 0.025 | inactive: 0 | inactive: -0.005 | inactive: -0.065 | inactive: 0 | inactive: 0.031 | inactive: -0.001

Two entries from above, as comma-separated lines:
Target,log2 fold change (erlotinib),log2 fold change [1],log2 fold change [2],log2 fold change [3],log2 fold change [4],log2 fold change [5],log2 fold change [6],log2 fold change [7],log2 fold change [8],log2 fold change (IRAK-1-4 Inhibitor I)
GSPT1 isoform 3 (UniProt P15170),inactive: 0.007,inactive: 0.033,inactive: 0,inactive: -0.012,inactive: -0.01,inactive: 0.02,inactive: 0.015,inactive: 0.022,inactive: -0.004,inactive: 0.015
GRK2 (UniProt P25098),inactive: 0.023,inactive: 0.028,inactive: 0.015,inactive: 0.115,inactive: -0.005,inactive: -0.025,inactive: -0.098,inactive: -0.026,active: 0.536,inactive: -0.002
